# These are yes or no findings as the source states them, for the method shown. In cells and extracts the contact can be indirect. Some results given as binding are weak or reduced against the parent protein; the word gives no strength.
# By UniProt entry, the sequences of proteins in these tests, tags left out.
# UniProt P61073: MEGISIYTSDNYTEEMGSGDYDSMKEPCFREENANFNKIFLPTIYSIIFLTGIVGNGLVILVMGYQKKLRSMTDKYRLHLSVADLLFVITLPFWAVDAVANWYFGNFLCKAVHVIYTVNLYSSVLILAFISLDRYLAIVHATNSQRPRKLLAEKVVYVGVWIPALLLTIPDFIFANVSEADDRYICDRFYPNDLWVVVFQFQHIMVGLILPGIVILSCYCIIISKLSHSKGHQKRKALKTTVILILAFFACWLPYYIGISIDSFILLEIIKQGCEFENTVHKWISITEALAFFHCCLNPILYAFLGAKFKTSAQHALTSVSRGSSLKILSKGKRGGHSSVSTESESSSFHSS
# UniProt P32121: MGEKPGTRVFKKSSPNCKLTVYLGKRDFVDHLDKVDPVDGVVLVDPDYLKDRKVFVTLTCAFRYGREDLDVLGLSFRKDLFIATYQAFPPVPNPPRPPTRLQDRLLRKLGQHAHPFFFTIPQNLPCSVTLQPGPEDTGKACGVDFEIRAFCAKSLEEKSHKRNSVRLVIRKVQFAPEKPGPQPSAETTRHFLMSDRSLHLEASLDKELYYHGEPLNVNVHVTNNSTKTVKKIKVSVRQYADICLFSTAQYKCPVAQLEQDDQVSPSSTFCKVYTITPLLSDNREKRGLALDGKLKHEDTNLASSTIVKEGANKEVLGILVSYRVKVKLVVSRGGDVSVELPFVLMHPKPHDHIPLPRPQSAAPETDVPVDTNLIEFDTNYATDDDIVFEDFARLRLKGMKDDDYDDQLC
# T1: GPR15-LgBiT (UniProt P49685)
# T1 sequence: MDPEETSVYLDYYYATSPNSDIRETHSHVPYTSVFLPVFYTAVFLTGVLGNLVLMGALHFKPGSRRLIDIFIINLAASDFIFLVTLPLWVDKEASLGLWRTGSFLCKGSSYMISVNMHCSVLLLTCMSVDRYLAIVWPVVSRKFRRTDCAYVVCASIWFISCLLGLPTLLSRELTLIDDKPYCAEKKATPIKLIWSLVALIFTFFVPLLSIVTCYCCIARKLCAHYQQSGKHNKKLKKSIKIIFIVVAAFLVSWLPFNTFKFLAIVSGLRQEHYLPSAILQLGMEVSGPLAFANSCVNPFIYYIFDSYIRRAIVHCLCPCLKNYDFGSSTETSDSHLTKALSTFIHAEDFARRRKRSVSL
# Tests used:
# [1] = target: T1, GPR15-LgBiT; test: split reporter; NanoBiT β-arrestin-2 recruitment, agonistic measurement; HEK293T transiently transfected with GPCR-LgBiT and SmBiT-arrestin; serially diluted stimulatory ligand (GPR15LG, CXCL12, AMD3100) for 1 h at 37 °C; fold change of AUC to buffer
# [2] = target: T1, GPR15-LgBiT; test: condition: only cells stimulated with CXCL12, without GPR15LG; split reporter; NanoBiT β-arrestin-2 recruitment, agonistic measurement, cells treated only with a ligand that did not activate the receptor (GPR15LG on CXCR4-LgBiT cells; CXCL12 on GPR15-LgBiT cells)
# [3] = target: CXCR4 N-terminally fused to Nanoluciferase (UniProt P61073); test: FRET or BRET; NanoBRET ligand binding competition; HEK293T cells stably expressing the receptor N-terminally fused to Nanoluciferase; increasing concentrations of ligands with 10 nM CXCL12-AZ568; 2 h on ice; only the binder purified
binding [1],binding [2],binding [3],Molecule
binds,no binding,,SmBiT-β-arrestin-2 (from UniProt P32121 1-409)
,,binds,KRRPAKAWSGRRTRLCC [GPR15LG-N (amino acids 25-41 of GPR15LG)]
